Earlier results in US20170074857A1, “MEDICATION ADHERENCE MONITORING DEVICE” (UNIVERSITY OF FLORIDA RESEARCH FOUNDATION, INC., priority 2014, published 2017).
Some of these results come from one statement about several compounds together.

Conditions: Europe; cited from earlier work

COC(=O)c1ccc(O)cc1 [methylparaben]
ADI (acceptable daily intake): up to 10 mg/kg per day
